Data from the supplement of paper PMC4635364.
Structures can show the parent of a compound that is named as a salt. This is one part of the list. Repeats in this data set agree poorly, so a single value says little.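 ReNCell VM, a human fetal ventral-midbrain neural progenitor line, was differentiated without mitogens. Blinded raters scored images stained for doublecortin (early neurons) or tyrosine hydroxylase (dopaminergic neurons) against untreated wells (0 = no change). Scores were averaged across repeats and both raters, and compounds averaging 2 or more were selected as hits for retesting.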

These molecules were tested on ReNCell VM (assay: neuronal differentiation score (DCX+ cell fraction vs untreated, manual image score) (score (-3 to 3)); higher = more neuronal differentiation). Conditions: library: Prestwick; 2 uM; 2 weeks.
For `O=C(O)Cc1ccccc1Nc1c(Cl)cccc1Cl` [Diclofenac sodium], the neuronal differentiation score was inactive: 0.
In the case of `Cc1ncc(C[n+]2csc(CCO)c2C)c(N)n1` [Thiamine hydrochloride], the neuronal differentiation score is reported as inactive: 0.
`CN(C)CCC=C1c2ccccc2C=Cc2ccccc21` [Cyclobenzaprine hydrochloride] was tested, and the neuronal differentiation score was inactive: 0.
For `CC(C)OC(=O)C(C)(C)Oc1ccc(C(=O)c2ccc(Cl)cc2)cc1` [Fenofibrate], the neuronal differentiation score was inactive: 0.
In the case of `Cc1ccc(S(=O)(=O)NC(=O)NN2CCCCCC2)cc1` [Tolazamide], the neuronal differentiation score is reported as inactive: 0.
With `CCCCc1oc2ccccc2c1C(=O)c1cc(I)c(OCCN(CC)CC)c(I)c1` [Amiodarone hydrochloride] the neuronal differentiation score was inactive: 0.
For `CCCCC[C@H](O)/C=C/[C@H]1[C@H](O)CC(=O)[C@@H]1CCCCCCC(=O)O` [Alprostadil], the neuronal differentiation score was inactive: 0.
With `CC[N+](C)(C)c1cccc(O)c1` [Edrophonium chloride] the neuronal differentiation score was inactive: 0.
`Nc1nc2c(ncn2COC(CO)CO)c(=O)[nH]1` [Ganciclovir] was tested, and the neuronal differentiation score was inactive: 0.
With `Cc1cnc(C(=O)NCCc2ccc(S(=O)(=O)NC(=O)NC3CCCCC3)cc2)cn1` [Glipizide] the neuronal differentiation score was inactive: 0.
With `CC1COc2c(N3CCN(C)CC3)c(F)cc3c(=O)c(C(=O)O)cn1c23` (centres undefined) [Ofloxacin] the neuronal differentiation score was inactive: 0.
For `Cc1cc(C(C)(C)C)cc(C)c1CC1=NCCN1` [Xylometazoline hydrochloride], the neuronal differentiation score was inactive: 0.
For `C#C[C@]1(O)CC[C@H]2[C@@H]3CCC4=Cc5oncc5C[C@]4(C)[C@H]3CC[C@@]21C` [Danazol], the neuronal differentiation score was inactive: 0.
With `CC(C)Cn1cnc2c(N)nc3ccccc3c21` [Imiquimod] the neuronal differentiation score was inactive: 0.
In the case of `CC(=O)CCCCn1c(=O)c2c(ncn2C)n(C)c1=O` [Pentoxifylline], the neuronal differentiation score is reported as inactive: 0.
In the case of `Cn1c(=O)c2[nH]cnc2n(C)c1=O` [Aminophylline], the neuronal differentiation score is reported as inactive: 0.
In the case of `NS(=O)(=O)Cc1noc2ccccc12` [Zonisamide], the neuronal differentiation score is reported as inactive: 0.
With `CC(=O)O[C@]1(C(C)=O)CC[C@H]2[C@@H]3C=C(Cl)C4=CC(=O)[C@@H]5C[C@@H]5[C@]4(C)[C@H]3CC[C@@]21C` [Cyproterone acetate] the neuronal differentiation score was inactive: 0.
For `CCN(CC)CC(=O)Nc1c(C)cccc1C` [Lidocaine hydrochloride], the neuronal differentiation score was inactive: 0.
`CCOC(=O)C(C)(C)Oc1ccc(Cl)cc1` [Clofibrate] was tested, and the neuronal differentiation score was inactive: 0.
With `CN(C)CCCO[C@@H]1[C@H]2OC(C)(C)O[C@H]2O[C@@H]1[C@H](O)CO` [Amiprilose hydrochloride] the neuronal differentiation score was inactive: 0.
For `N=C(N)N1CCc2ccccc2C1` [Debrisoquin sulfate], the neuronal differentiation score was inactive: 0.
For `CC[C@H](C)C(=O)O[C@H]1C[C@@H](C)C=C2C=C[C@H](C)[C@H](CC[C@@H]3C[C@@H](O)CC(=O)O3)[C@H]21` [Lovastatin], the neuronal differentiation score was inactive: 0.
In the case of `CCCCC1C(=O)N(c2ccccc2)N(c2ccccc2)C1=O` [Phenylbutazone], the neuronal differentiation score is reported as inactive: 0.
For `C[C@H](CS)C(=O)N1CCC[C@H]1C(=O)O` [Captopril], the neuronal differentiation score was inactive: 0.
With `CN(Cc1cnc2nc(N)nc(N)c2n1)c1ccc(C(=O)N[C@@H](CCC(=O)O)C(=O)O)cc1` [Methotrexate] the neuronal differentiation score was inactive: 0.

Same assay, conditions: library: Tocriscreen; 2 uM; 2 weeks
`O=C(O)c1cc(=O)c2ccccc2[nH]1` [Kynurenic acid] was tested, and the neuronal differentiation score was inactive: 0.
`Nc1nc2ccc(Cl)cc2c2nc(-c3ccco3)nn12` was tested, and the neuronal differentiation score was inactive: 0.
In the case of `CCCCC[C@H](O)/C=C/[C@H]1[C@H](O)CC(=O)[C@@H]1CCCCCCC(=O)O` [Alprostadil], the neuronal differentiation score is reported as inactive: 0.
For `Cc1cc(C)c(/C=C2\C(=O)Nc3ccccc32)[nH]1`, the neuronal differentiation score was inactive: 0.
For `Cn1cnc2c(NCc3ccccc3)nc(NCCO)nc21` [Olomoucine], the neuronal differentiation score was inactive: 0.
In the case of `NS(=O)(=O)Cc1noc2ccccc12` [Zonisamide], the neuronal differentiation score is reported as inactive: 0.
With `Nc1ncnc2c1ncn2C1CCCO1` (centres undefined) the neuronal differentiation score was inactive: 0.
With `C1CCC(N=C(NC23CC4CC(CC(C4)C2)C3)N2CCOCC2)CC1` the neuronal differentiation score was inactive: -1.
With `COc1cccc(-c2cc(=O)c3ccccc3o2)c1N` the neuronal differentiation score was inactive: -1.
`CCCCCCC(=O)OC1CC(C)(C)NC(C)(C)C1` [TMPH hydrochloride] was tested, and the neuronal differentiation score was inactive: 0.
For `NC1CCN(c2cccc(Cl)n2)CC1`, the neuronal differentiation score was inactive: 0.
`CCCc1c(OCCCOc2ccc(OCC(=O)O)cc2)ccc(C(C)=O)c1O` was tested, and the neuronal differentiation score was inactive: 0.
For `COc1ccc(-c2ccc(=N)n(CCCC(=O)O)n2)cc1`, the neuronal differentiation score was inactive: 0.
For `COCC(=O)O[C@]1(CCN(C)CCCc2nc3ccccc3[nH]2)CCc2cc(F)ccc2[C@@H]1C(C)C` [Mibefradil dihydrochloride], the neuronal differentiation score was inactive: 0.
`C=C[C@@]1(C)CC(=O)[C@]2(O)[C@@]3(C)[C@@H](O)CCC(C)(C)[C@@H]3[C@H](O)[C@H](OC(C)=O)[C@@]2(C)O1` [Forskolin] was tested, and the neuronal differentiation score was inactive: 1.
With `CC[C@H](C)C(=O)O[C@H]1C[C@@H](C)C=C2C=C[C@H](C)[C@H](CC[C@@H]3C[C@@H](O)CC(=O)O3)[C@H]21` [Lovastatin] the neuronal differentiation score was inactive: 0.
With `O=C(OCCN1CCCCC1)c1c[nH]c2ccccc12` the neuronal differentiation score was inactive: 0.
`CN(Cc1cnc2nc(N)nc(N)c2n1)c1ccc(C(=O)N[C@@H](CCC(=O)O)C(=O)O)cc1` [Methotrexate] was tested, and the neuronal differentiation score was inactive: 0.
